Results published in patent US20240218059A1, “TGF-Beta 1 INHIBITORS FOR PREVENTING AND TREATING SARS-COV-2” (The Regents of the University of Colorado, A Body Corporate, priority 2020, published 2024).
Some entries share one result that the patent states for a list of compounds. For at least one compound, name, drawing or mass did not settle the structure.

Test system: active TGF-β1 signaling
Assay: inhibition of active TGF-β1 signaling in MLEC luciferase reporter cells
Format: cell-based, mink
Conditions: inhibitor 1-2 uM, 1 hour pre-incubation, human active TGF-β1, 18 hours, FIG. 7
Procedure: In these experiments, SB505124 and galunisertib (Fisher, Inc.) inhibitors were added at 1-2 uM concentrations to MLEC plated in 96-well plates using a 1 hour pre-incubation before addition of human active TGF-β1 in […] concentrations with continued presence of the inhibitor for 18 hours overnight in standard conditions as described in Example 2 methods. A neutraceutical, the green tea catechin ECGC (Sigma) was also tested. Luciferase signals were determined after cell lysis and compared as in Example 2.

Structure (SMILES) | blocking of active TGF-β1 signaling
Cc1cccc(-c2[nH]c(C(C)(C)C)nc2-c2ccc3c(c2)OCO3)n1 [SB505124] | more than 90%
Cc1cccc(-c2nn3c(c2-c2ccnc4ccc(C(N)=O)cc24)CCC3)n1 [galunisertib] | more than 90%
